Results published in US5416087A, “Bis-benzo, cyclohepta piperidylidene, piperidine and piperazine compounds, compositions and methods of use” (priority 1993, dated 1995).

System: PAF-induced platelet aggregation
Assay: Platelet aggregation assay (PAF-induced aggregation of human platelet-rich plasma)
Assay type: cell-based
Details: 2 min, human PRP, PAF 1-5×10^-8 M, 37° C., 2 min. incubation, read-out: PAF Antagonism (in vitro) IC50
Method: Platelet-activating factor (PAF) causes aggregation of platelets by a receptor-mediated mechanism. Therefore, PAF-induced platelet aggregation provides a simple and convenient assay to screen compounds for PAF antagonism.
Blood was centrifuged at 110×g for 15 min. and the supernatant platelet-rich plasma (PRP) carefully transferred into a polypropylene tube. Platelet-poor-plasma (PPP) was prepared by centrifuging PRP at 12,000×g for 2 min. (Beckman Microfuge B). PRP was used within 3 hr. of drawing the blood.
PAF was dissolved in chloroform:methanol (1:1, v/v) at a concentration of 2 mg/ml and stored at -70° C. An aliquot of this solution was transferred to a polypropylene tube and dried under a flow of nitrogen gas. […] This stock solution was further diluted to appropriate concentrations in Hepes-saline-BSA buffer. Collagen (Sigma) and adenosine diphosphate (ADP) (Sigma) were purchased as solutions. Test compounds were initially dissolved in dimethyl sulfoxide (DMSO) at a concentration of 50 mM and then further diluted in Hepes-saline-BSA buffer to achieve appropriate concentrations.
When an aggregating agent such as PAF is added to PRP, platelets aggregate. An aggregometer quantifies this aggregation by measuring and comparing light (infra-red) transmission through PPP and PRP. […]

## CCOC(=O)N1CCC(=C2c3ccc(Cl)cc3CCc3cccnc32)CC1 [Compound 1]
  IC50: 175 µM
